Results on one compound are retold here after paper PMC6627486, “Ipomoeassin F Binds Sec61α to Inhibit Protein Translocation” (Journal of the American Chemical Society, 2019).

In the series the test system is MDA-MB-231 cells. Kind of series: Live cell imaging with fluorescent probe 12. It counts as cell-based, human. As for the experimental part:
MDA-MB-231 cells were seeded on fibronectin-coated coverslips at 70% confluency in a 48-well plate and cultured at 37 °C and 5% CO2. After 24 h, culture medium was replaced with fresh medium containing a 20 µM competitor or an equal volume of DMSO vehicle for 30 min at 37 °C and 5% CO2, followed by addition of 0.2 µM (final concentration) fluorescent probe 12. After 1 h incubation at 37 °C and 5% CO2, the coverslips were mounted onto a glass slide with a mounting medium with or without 0.5 µg/ml DAPI.
The fluorescent images were acquired with a confocal microscope (Leica TCS SP5) using 405 nm excitation and 562 nm excitation. For the ER co-localization studies, 1 uM ER-Tracker™ Blue-White DPX was added to the medium after 1 h incubation with probe 12. After 5 min incubation, the coverslips were mounted onto a glass slide and the images were acquired as described above.
CT7 photo-affinity labeling and click chemistry were done as previously described.14 Briefly, SRMs (sheep rough microsomes, isolated as described in reference15) containing 100 nM Sec61 were treated with 10 µM ipomoeassin F/mycolactone or 1% DMSO for 30 min at 0°C, followed by incubation with 100 nM CT7 for 10 min RT. Samples were then photolyzed for 10 min and crosslinked proteins were detected by click chemistry, SDS-PAGE, and in-gel fluorescent scanning (Typhoon Trio, GE Healthcare).
In Vitro Membrane Translocation Assays.
Unless otherwise stated, all cDNAs are of human origin and as previously described: CytB5OPG2,16 GypC,17 ppαF (Saccharomyces cerevisiae),16 ppcecAOPG2 (Hyalophora cecropia),16 PPL (Bos Taurus),16 Sec61βOPG216 and VCAM1.17 Ii encodes residues 17 to 232 of the short form of human HLA class II histocompatibility antigen gamma chain (Ii; P04232, isoform 2). Linear DNA templates were generated by PCR and transcribed into RNA using T7 or SP6 polymerase (Promega).
In vitro translation and translocation into ER microsomes […]

In the case of `C/C=C(\C)C(=O)O[C@@H]1[C@@H](O)[C@@H]2O[C@H]3[C@H](O[C@@H](CCCCC)CCCCCCC(=O)CCC(=O)OC[C@@H](O2)[C@H]1OC(=O)/C=C/c1ccc(OCc2cn(CCOCCOCCOCCNS(=O)(=O)c4ccc(-c5c6ccc(=[N+](CC)CC)cc-6oc6cc(N(CC)CC)ccc56)c(S(=O)(=O)[O-])c4)nn2)cc1)O[C@H](C)[C@H](OC(C)=O)[C@@H]3O` [compound 12], the “subcellular localization of fluorescent probe” value (MDA-MB-231 cells, costained with ER or nucleus markers) was “strongly labeled the ER”. For the setting “probe at 20 nM”, the “time to give clear images” value is given as > 3 h. The “time to stain cells” value (probe at 2 μM) is ≤ 30 min.
